Results from US9266933B2 (SHANGHAI FIRST PEOPLE'S HOSPITAL, priority 2011, dated 2016).
Where a sequence shows no end group, the ends are not given.

Experiment: general procedure: Fmoc solid-phase peptide synthesis; 2-Chlorotrityl Chloride Resin; HBTU
Details: whole synthesis

## TANVTMQLLKIRSGDRPSYVELTFSQH (angiogenesis-inhibiting peptide ZY3)
Run 1
  final HPLC purity: >95%
Run 2
  final HPLC purity: over 99%
